In assay [1] the target is T1, Smc3(K198C, S1127R)-HaloTag (S. cerevisiae) (UniProt P47037).
T1 sequence: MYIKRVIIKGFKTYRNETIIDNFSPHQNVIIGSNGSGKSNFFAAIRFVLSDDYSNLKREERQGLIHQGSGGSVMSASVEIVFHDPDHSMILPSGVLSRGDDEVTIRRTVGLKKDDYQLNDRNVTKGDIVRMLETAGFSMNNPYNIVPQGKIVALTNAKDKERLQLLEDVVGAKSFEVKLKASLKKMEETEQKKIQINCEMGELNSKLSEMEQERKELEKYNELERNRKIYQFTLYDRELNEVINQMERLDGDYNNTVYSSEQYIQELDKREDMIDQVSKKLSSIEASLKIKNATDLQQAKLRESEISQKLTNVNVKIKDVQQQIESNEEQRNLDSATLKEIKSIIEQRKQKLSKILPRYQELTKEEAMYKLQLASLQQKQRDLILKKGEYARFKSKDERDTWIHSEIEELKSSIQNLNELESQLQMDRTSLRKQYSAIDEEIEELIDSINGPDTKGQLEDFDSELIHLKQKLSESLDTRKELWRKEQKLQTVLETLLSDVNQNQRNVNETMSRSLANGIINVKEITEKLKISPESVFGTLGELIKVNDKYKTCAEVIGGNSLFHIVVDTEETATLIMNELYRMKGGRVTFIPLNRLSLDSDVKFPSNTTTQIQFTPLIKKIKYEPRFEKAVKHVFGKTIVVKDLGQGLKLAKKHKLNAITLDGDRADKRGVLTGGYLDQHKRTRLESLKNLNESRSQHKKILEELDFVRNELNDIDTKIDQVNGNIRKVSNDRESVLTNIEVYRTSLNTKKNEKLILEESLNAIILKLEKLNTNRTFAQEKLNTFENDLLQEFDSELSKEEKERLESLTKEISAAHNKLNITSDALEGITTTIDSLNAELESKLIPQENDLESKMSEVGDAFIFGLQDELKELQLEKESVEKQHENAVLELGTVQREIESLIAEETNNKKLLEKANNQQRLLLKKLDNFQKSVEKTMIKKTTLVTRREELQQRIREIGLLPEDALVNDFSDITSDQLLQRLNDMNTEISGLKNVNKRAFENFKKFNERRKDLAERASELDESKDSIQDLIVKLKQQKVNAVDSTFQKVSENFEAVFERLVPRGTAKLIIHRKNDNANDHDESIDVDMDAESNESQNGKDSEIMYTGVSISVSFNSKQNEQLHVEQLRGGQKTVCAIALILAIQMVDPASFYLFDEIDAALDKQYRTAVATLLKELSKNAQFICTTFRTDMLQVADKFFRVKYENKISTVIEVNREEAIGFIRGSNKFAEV
In words: cross-linking.

Assay [2] addresses T2, Smc3(E570C, S1127R)-HaloTag (S. cerevisiae) (UniProt P47037).
T2 sequence: T1 sequence with C198K, E570C
Briefly: cross-linking.

Positions count from the first letter of the chain named. Names may count otherwise. No constants are given. Whether binding was seen depends on the method and setting. Binding seen in cells or lysates may run through a third protein. Some binding calls cover weakened binding; strength is not graded here. Tags and fused reporters may be left off the sequences shown.

B1: Smc1(K201C) (protein, UniProt P32908 1-1225)
chain: MGRLVGLELSNFKSYRGVTKVGFGESNFTSIIGPNGSGKSNMMDAISFVLGVRSNHLRSNILKDLIYRGVLNDENSDDYDNEGAASSNPQSAYVKAFYQKGNKLVELMRIISRNGDTSYKIDGKTVSYKDYSIFLENENILIKAKNFLVFQGDVEQIAAQSPVELSRMFEEVSGSIQYKKEYEELKEKIEKLSKSATESICNRRRIHGELKTYKEGINKNEEYRKQLDKKNELQKFQALWQLYHLEQQKEELTDKLSALNSEISSLKGKINNEMKSLQRSKSSFVKESAVISKQKSKLDYIFKDKEKLVSDLRLIKVPQQAAGKRISHIEKRIESLQKDLQRQKTYVERFETQLKVVTRSKEAFEEEIKQSARNYDKFKLNENDLKTYNCLHEKYLTEGGSILEEKIAVLNNDKREIQEELERFNKRADISKRRITEELSITGEKLDTQLNDLRVSLNEKNALHTERLHELKKLQSDIESANNQEYDLNFKLRETLVKIDDLSANQRETMKERKLRENIAMLKRFFPGVKGLVHDLCHPKKEKYGLAVSTILGKNFDSVIVENLTVAQECIAFLKKQRAGTASFIPLDTIETELPTLSLPDSQDYILSINAIDYEPEYEKAMQYVCGDSIICNTLNIAKDLKWKKGIRGKLVTIEGALIHKAGLMTGGISGDANNRWDKEEYQSLMSLKDKLLIQIDELSNGQRSNSIRAREVENSVSLLNSDIANLRTQVTQQKRSLDENRLEIKYHNDLIEKEIQPKITELKKKLDDLENTKDNLVKEKEALQNNIFKEFTSKIGFTIKEYENHSGELMRQQSKELQQLQKQILTVENKLQFETDRLSTTQRRYEKAQKDLENAQVEMKSLEEQEYAIEMKIGSIESKLEEHKNHLDELQKKFVTKQSELNSSEDILEDMNSNLQVLKRERDGIKEDIEKFDLERVTALKNCKISNINIPISSETTIDDLPISSTDNEAITISNSIDINYKGLPKKYKENNTDSARKELEQKIHEVEEILNELQPNARALERYDEAEGRFEVINNETEQLKAEEKKILNQFLKIKKKRKELFEKTFDYVSDHLDAIYRELTKNPNSNVELAGGNASLTIEDEDEPFNAGIKYHATPPLKRFKDMEYLSGGEKTVAALALLFAINSYQPSPFFVLDEVDAALDITNVQRIAAYIRRHRNPDLQFIVISLKNTMFEKSDALVGVYRQQQENSSKIITLDLSNYAE
With B1, the binding entry in assay [1] is on record as “binds”.

B2: Smc1(K639C) (protein, UniProt P32908 1-1225)
chain: B1 chain with C201K, K639C
For the molecule B2, in assay [2], the binding entry is on record as “binds”.

The values above are taken from doi:10.1101/495762 (bioRxiv, 2018).
